Percent effect of library compounds

Chains of the proteins cited; added tags and fusions are not shown. Residues count along the entry.
UniProt P9WFT3, whole entry: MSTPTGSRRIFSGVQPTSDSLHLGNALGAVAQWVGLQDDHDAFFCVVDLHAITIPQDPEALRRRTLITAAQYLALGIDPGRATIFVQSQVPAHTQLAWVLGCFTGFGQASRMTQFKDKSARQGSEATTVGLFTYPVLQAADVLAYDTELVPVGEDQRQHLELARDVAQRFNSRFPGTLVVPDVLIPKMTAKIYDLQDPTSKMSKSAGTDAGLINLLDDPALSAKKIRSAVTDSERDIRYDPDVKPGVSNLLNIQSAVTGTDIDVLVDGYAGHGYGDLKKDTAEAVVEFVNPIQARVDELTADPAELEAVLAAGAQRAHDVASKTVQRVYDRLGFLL
UniProt Q8IDJ8, 1-583: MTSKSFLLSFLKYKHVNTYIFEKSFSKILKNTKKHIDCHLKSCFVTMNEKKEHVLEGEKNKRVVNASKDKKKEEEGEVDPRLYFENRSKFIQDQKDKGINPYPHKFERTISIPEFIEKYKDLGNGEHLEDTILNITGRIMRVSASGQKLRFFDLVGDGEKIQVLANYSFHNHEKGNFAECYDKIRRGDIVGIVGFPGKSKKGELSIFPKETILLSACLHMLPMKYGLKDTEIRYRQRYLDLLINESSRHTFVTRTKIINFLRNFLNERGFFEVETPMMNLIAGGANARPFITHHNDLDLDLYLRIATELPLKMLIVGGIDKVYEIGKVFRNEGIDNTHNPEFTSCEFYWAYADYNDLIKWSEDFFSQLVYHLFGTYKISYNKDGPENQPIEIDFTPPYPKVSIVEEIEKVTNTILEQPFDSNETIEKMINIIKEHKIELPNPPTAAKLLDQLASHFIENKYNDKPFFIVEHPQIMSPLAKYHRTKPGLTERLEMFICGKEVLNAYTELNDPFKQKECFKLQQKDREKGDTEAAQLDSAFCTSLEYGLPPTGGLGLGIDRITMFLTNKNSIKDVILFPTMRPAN
UniProt P9WNZ1, whole entry: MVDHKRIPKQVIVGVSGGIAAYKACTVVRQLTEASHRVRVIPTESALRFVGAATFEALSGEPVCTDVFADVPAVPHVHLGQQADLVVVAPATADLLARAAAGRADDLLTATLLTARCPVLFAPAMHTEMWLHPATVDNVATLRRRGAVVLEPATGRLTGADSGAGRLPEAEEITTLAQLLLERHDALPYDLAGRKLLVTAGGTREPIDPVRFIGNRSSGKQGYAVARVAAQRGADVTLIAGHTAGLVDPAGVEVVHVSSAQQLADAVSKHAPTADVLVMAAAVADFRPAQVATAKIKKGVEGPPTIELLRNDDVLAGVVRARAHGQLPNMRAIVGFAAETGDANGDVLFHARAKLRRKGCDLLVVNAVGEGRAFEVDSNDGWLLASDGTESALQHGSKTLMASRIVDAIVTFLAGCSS
UniProt P9WPC5, whole entry: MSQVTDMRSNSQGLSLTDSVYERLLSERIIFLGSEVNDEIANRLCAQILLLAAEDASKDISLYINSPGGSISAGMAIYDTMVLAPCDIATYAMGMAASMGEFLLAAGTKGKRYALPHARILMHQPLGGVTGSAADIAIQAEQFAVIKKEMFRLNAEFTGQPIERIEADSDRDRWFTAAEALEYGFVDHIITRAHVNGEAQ
UniProt P9WPC3, whole entry partner: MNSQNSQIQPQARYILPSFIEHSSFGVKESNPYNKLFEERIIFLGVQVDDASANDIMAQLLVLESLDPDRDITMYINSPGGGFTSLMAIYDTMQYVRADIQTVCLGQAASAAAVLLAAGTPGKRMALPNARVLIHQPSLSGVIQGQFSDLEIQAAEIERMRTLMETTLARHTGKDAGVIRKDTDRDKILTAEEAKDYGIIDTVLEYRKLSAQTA
UniProt Q4DA54, 1-478: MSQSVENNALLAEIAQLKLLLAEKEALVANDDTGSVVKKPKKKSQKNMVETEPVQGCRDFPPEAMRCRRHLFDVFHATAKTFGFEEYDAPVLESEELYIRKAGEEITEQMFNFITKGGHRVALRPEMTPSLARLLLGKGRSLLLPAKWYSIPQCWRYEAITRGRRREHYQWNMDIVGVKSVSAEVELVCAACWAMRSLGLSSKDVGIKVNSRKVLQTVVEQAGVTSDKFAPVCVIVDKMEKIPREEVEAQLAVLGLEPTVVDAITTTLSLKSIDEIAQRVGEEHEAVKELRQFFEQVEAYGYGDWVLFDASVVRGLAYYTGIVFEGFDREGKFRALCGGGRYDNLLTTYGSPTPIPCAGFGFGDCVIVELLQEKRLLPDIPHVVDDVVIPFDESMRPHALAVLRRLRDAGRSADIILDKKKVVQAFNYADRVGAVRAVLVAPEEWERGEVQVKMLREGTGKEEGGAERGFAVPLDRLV

Measurements from “University of Dundee, Small-Polar-MMV Screening Library” (2021), ChEMBL document CHEMBL3988442.

Values are the deposited “Percent Effect”, in %. The record does not define 0% and 100%; most values in the screen are far below 50% and negative numbers occur (in some assays of this library far below -100). Compounds were drawn at random from those tested, without regard to their results.

MtTrpRS: 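Enzyme assay of tryptophanyl-tRNA synthetase; the read-out is not stated. Target: Tryptophan-tRNA ligase, Mycobacterium tuberculosis (UniProt P9WFT3). Compounds at 10 µM. Direction is not recorded; retested compounds ran higher, which suggests that high means inhibition. Of about 65,000 compounds tested this way, about 64 (0.098%) reached 50% or more in at least one test.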
PfKRS1: 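Enzyme assay of the cytosolic lysyl-tRNA synthetase in 384-well plates, read by luminescence. Target: Lysine-tRNA ligase, Plasmodium falciparum 3D7 (UniProt Q8IDJ8). Compounds at 30 µM. Higher reads as stronger inhibition, judged from the few compounds that gave an IC50. Of about 69,000 compounds tested this way, about 49 (0.071%) reached 50% or more in at least one test.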
CoaBC: 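Enzyme assay of CoaBC with a phosphate dye (Biomol Green) read at 650 nm. Target: Coenzyme A biosynthesis protein CoaBC, Mycobacterium tuberculosis (UniProt P9WNZ1). Compounds at 30 µM. Direction is inferred from only a few compounds that gave an IC50; most scored high, so higher reads as stronger inhibition. Most strong results did not repeat in a second test. About 67,000 compounds were tested under these conditions; 0.06% (about 40) showed 50% or more at least once.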
ClpP1P2: 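ClpP1P2, Mycobacterium tuberculosis (UniProt P9WPC5 and UniProt P9WPC3). Protease assay of ClpP1P2, read by the AMC dye that it sets free. Concentration: 50 µM. Higher reads as stronger inhibition, judged from the few compounds that gave an IC50. Most other retested compounds had strongly negative values. About 69,000 compounds were tested under these conditions; 0.015% (about 10) showed 50% or more at least once.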
TcHisRS: 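Enzyme assay of histidyl-tRNA synthetase; the read-out is not stated. Target: Histidine-tRNA ligase, Trypanosoma cruzi CL Brener (UniProt Q4DA54). Concentration: 30 µM. Higher reads as stronger inhibition (inferred: compounds with an IC50 in retests scored well above the rest). Size under these conditions: about 69,000 compounds, about 31 of them at 50% or above in at least one test.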

{"smiles": "Cc1cc(NCCNc2ccc(C#N)cn2)nc(C)n1", "MtTrpRS": 0.3127, "PfKRS1": -0.1222, "CoaBC": 1.873, "ClpP1P2": 7.867, "TcHisRS": 3.061}
{"smiles": "O=C1CNc2ncnc(N3CCN(Cc4ccccc4F)CC3)c2N1", "MtTrpRS": 3.692, "PfKRS1": 2.435, "CoaBC": 2.296, "ClpP1P2": -43.78, "TcHisRS": 4.018}
{"smiles": "Cc1cc(CN2C[C@H]3CCC[C@@]3(COCC(=O)N3CCCC3)C2)no1", "MtTrpRS": -6.853, "PfKRS1": 5.316, "CoaBC": 10.39, "ClpP1P2": -5.711, "TcHisRS": 6.897}
{"smiles": "CC(C)N(CC(N)=O)C(=O)c1cnc(-c2ccc3c(c2)OCO3)s1", "MtTrpRS": -21.22, "PfKRS1": 3.114, "CoaBC": -1.493, "ClpP1P2": -507.4, "TcHisRS": 1.754}
{"smiles": "Cc1ccc(CCNC(=O)Cn2nc(C)n(Cc3ccccc3)c2=O)s1", "MtTrpRS": -0.361, "PfKRS1": 0.3509, "CoaBC": 4.303, "ClpP1P2": 4.388, "TcHisRS": 5.319}
{"smiles": "Cc1cnn(CCNCc2csc(-c3ccsc3)n2)c1", "MtTrpRS": -14.5, "PfKRS1": -0.8933, "CoaBC": 4.943, "ClpP1P2": -65.36, "TcHisRS": 7.692}
{"smiles": "Fc1cccc(Oc2ccc(CNCC3CNc4ccnn4C3)cn2)c1", "stereo": "stereo unspecified", "MtTrpRS": -1.199, "PfKRS1": 3.744, "CoaBC": 6.506, "ClpP1P2": 11.96, "TcHisRS": 12.21}
{"smiles": "OCCNc1cc(N2CCN(Cc3ccccc3)C(CCO)C2)ncn1", "stereo": "stereo unspecified", "MtTrpRS": -6.124, "PfKRS1": 6.38, "CoaBC": 3.871, "ClpP1P2": -5.374, "TcHisRS": 4.433}
{"smiles": "CNc1cc(C)nc(C2CN(Cc3cc[nH]n3)CCO2)c1", "stereo": "stereo unspecified", "MtTrpRS": 2.09, "PfKRS1": -1.791, "CoaBC": 1.944, "ClpP1P2": -1.4, "TcHisRS": -3.784}
{"smiles": "Cc1ccc(CC(=O)N2CCCn3nnc(Cn4cccn4)c3C2)cc1", "MtTrpRS": -0.1803, "PfKRS1": -0.02282, "CoaBC": -6.721, "ClpP1P2": 5.617, "TcHisRS": 3.448}
{"smiles": "CC(C)c1nccn1CCn1cnc2ccsc2c1=O", "MtTrpRS": -3.216, "PfKRS1": 6.086, "CoaBC": 5.697, "ClpP1P2": 0.5088, "TcHisRS": 5.172}
{"smiles": "Cc1n[nH]c(C2CN(CC(=O)NCCc3ccccc3)CCO2)n1", "stereo": "stereo unspecified", "MtTrpRS": 3.47, "PfKRS1": 1.544, "CoaBC": 0.8963, "ClpP1P2": -12.95, "TcHisRS": -3.067}
{"smiles": "O=C(Cc1cccc2cccnc12)N1CCCN(c2cccnn2)CC1", "MtTrpRS": -2.034, "PfKRS1": -1.518, "CoaBC": 2.376, "ClpP1P2": -15.05, "TcHisRS": -5.042}
{"smiles": "O=C(Nc1ccccc1)[C@H]1C[C@@H]2CN(Cc3cccnc3)C[C@H]1O2", "MtTrpRS": -2.346, "PfKRS1": 3.717, "CoaBC": 4, "ClpP1P2": -6.505, "TcHisRS": 8.824}
{"smiles": "CCc1nnc(C(C)N2CCC(NC(=O)C3CCCCC3)CC2)o1", "stereo": "stereo unspecified", "MtTrpRS": 2.574, "PfKRS1": 1.775, "CoaBC": 3.883, "ClpP1P2": -8.056, "TcHisRS": 11.06}
{"smiles": "CC(C)c1csc(C(=O)N(C)c2ccc(Br)cn2)n1", "MtTrpRS": -1.146, "PfKRS1": 4.235, "CoaBC": 1.603, "ClpP1P2": -16.74, "TcHisRS": 0}
{"smiles": "Cc1cnc(N2CCc3c(cnc(C)c3C(=O)O)C2)nc1", "MtTrpRS": 0.3526, "PfKRS1": 5.371, "CoaBC": 0, "ClpP1P2": -16.19, "TcHisRS": 4.813}
{"smiles": "Cc1cc(C)n(C2CN(CC(=O)NCC(C)(C)N3CCOCC3)C2)n1", "MtTrpRS": -1.852, "PfKRS1": 4.621, "CoaBC": -2.35, "ClpP1P2": -4.163, "TcHisRS": 1.88}
{"smiles": "Cn1cnnc1CNC(=O)c1ccc(Br)cc1O", "MtTrpRS": -2.963, "PfKRS1": 5.927, "CoaBC": -4.485, "ClpP1P2": -1.633, "TcHisRS": 2.041}

Repeated from the top, 2 entries:

SMILES,MtTrpRS,PfKRS1,CoaBC,ClpP1P2,TcHisRS
Cc1cc(NCCNc2ccc(C#N)cn2)nc(C)n1,0.3127,-0.1222,1.873,7.867,3.061
O=C1CNc2ncnc(N3CCN(Cc4ccccc4F)CC3)c2N1,3.692,2.435,2.296,-43.78,4.018